{"source": "PubChem BioAssay AID1053208 – Peter MacCallum Cancer Centre, 2014", "aim": "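Genes whose silencing cuts survival of bone tumour cells only with doxorubicin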 (primary screen)", "cells": "mouse osteosarcoma cells, early-passage culture from an engineered mouse model of fibroblastic bone tumour", "knock-down reagent": "siRNA pool against mouse genes, 40 nM", "time to read-out": "about 120 h (48 h before drug, then 72 h with drug)", "conditions": "doxorubicin 100 nM for 72 h, roughly 30-40% inhibitory dose", "measured": "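Viability read as ATP luminescence after 72 h of 100 nM doxorubicin or none, duplicate wells averaged, scaled to non-targeting siRNA, then expressed as robust z-scores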", "scale": "viability z-score with doxorubicin: higher = more viable cells under doxorubicin; viability z-score without drug: higher = more viable cells with knock-down alone", "hit rule": "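Called active if knock-down leaves viability unchanged without drug (z within -2 to 2) but lowers it with doxorubicin (z at or under -2)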", "note": "This is a random part of about 17,000 deposited reagents. Over the whole deposit, 788 (4.7%) are marked active. 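Calls rest on z-score classes alone; an extra cut-off of viability at most 70% of control was not applied to them.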 Further read-outs or replicates are left out here."}
{"target gene": "Timcc (TIM double twin CX3C motif chaperone)", "combined z-score class": "no change with or without drug", "viability z-score with doxorubicin": -0.9, "viability z-score without drug": 0, "Call": "inactive"}
{"target gene": "Dnaaf11 (dynein axonemal assembly factor 11)", "combined z-score class": "low cell count without drug only", "viability z-score with doxorubicin": -1.8, "viability z-score without drug": -2.19, "Call": "inactive"}
{"target gene": "Dpcd (deleted in primary ciliary dyskinesia)", "combined z-score class": "no change with or without drug", "viability z-score with doxorubicin": 0.34, "viability z-score without drug": 1.18, "Call": "inactive"}
{"target gene": "Zfy2 (zinc finger protein 2, Y-linked)", "combined z-score class": "no change with or without drug", "viability z-score with doxorubicin": 1.12, "viability z-score without drug": 0.51, "Call": "inactive"}

Continued (2 carried over from the part before).
{"target gene": "Dpcd (deleted in primary ciliary dyskinesia)", "combined z-score class": "no change with or without drug", "viability z-score with doxorubicin": 0.34, "viability z-score without drug": 1.18, "Call": "inactive"}
{"target gene": "Zfy2 (zinc finger protein 2, Y-linked)", "combined z-score class": "no change with or without drug", "viability z-score with doxorubicin": 1.12, "viability z-score without drug": 0.51, "Call": "inactive"}
{"target gene": "Ttc8 (tetratricopeptide repeat domain 8)", "combined z-score class": "no change with or without drug", "viability z-score with doxorubicin": 0.67, "viability z-score without drug": 0, "Call": "inactive"}
{"target gene": "Hmces (5-hydroxymethylcytosine (hmC) binding, ES cell specific)", "combined z-score class": "no change with or without drug", "viability z-score with doxorubicin": -0.67, "viability z-score without drug": -1.01, "Call": "inactive"}
{"target gene": "Hey2 (hairy/enhancer-of-split related with YRPW motif 2)", "combined z-score class": "no change with or without drug", "viability z-score with doxorubicin": 0.45, "viability z-score without drug": 0.51, "Call": "inactive"}
{"target gene": "Scgb1b2 (secretoglobin, family 1B, member 2)", "combined z-score class": "no change with or without drug", "viability z-score with doxorubicin": 1.12, "viability z-score without drug": 1.35, "Call": "inactive"}
{"target gene": "Ubr5 (ubiquitin protein ligase E3 component n-recognin 5)", "combined z-score class": "no change with or without drug", "viability z-score with doxorubicin": 0.34, "viability z-score without drug": 0.34, "Call": "inactive"}
{"target gene": "Dennd1c (DENN domain containing 1C)", "combined z-score class": "no change with or without drug", "viability z-score with doxorubicin": 0.67, "viability z-score without drug": -1.18, "Call": "inactive"}
{"target gene": "Stard6 (StAR related lipid transfer domain containing 6)", "combined z-score class": "no change with or without drug", "viability z-score with doxorubicin": 1.12, "viability z-score without drug": 1.52, "Call": "inactive"}
{"target gene": "Extl2 (exostosin-like glycosyltransferase 2)", "combined z-score class": "no change with or without drug", "viability z-score with doxorubicin": 1.46, "viability z-score without drug": 0.67, "Call": "inactive"}
